Measurements as given in patent US20240174673A1, “Spirocycle Containing Pyridine Compounds” (Protego Biopharma, Inc., priority 2022, published 2024).
At least one structure is not confirmed: it was looked up by name or label, or the drawing left a doubt.

System: Recombinant amyloidogenic full length light chain protein WIL-FL T46L
Experiment: Differential Scanning Fluorimetry (thermal shift) assay
Format: binding
Details: WIL-FL T46L protein and compound incubated at RT for 30 min before dye; compared to vehicle
Procedure: Differential Scanning Fluorimetry Assay
The stabilization effects the compounds have on the immunoglobulin light chain protein was quantitively measured using a thermal shift assay. Recombinant amyloidogenic full length light chain protein WIL-FL T46L was produced in E. coli, purified, and used in the assay. The Thermal Shift Protein Stability Kit from Biotium was used and the assay was done in 96-well Plates following the manufacturer's instructions. The protein and compounds were incubated at RT for 30 min before adding the dye and subjected to the thermal shift assay. The thermal stability (Tm) of each sample was then determined using standard curve fitting methods and compared to vehicle. Data are expressed as temperature shift: [Tm]compound−[Tm]vehicle.
The compounds provided herein induce shifts in the ranges below: • 0-0.5° C.=* • >0.5-1° C.=** • >1-1.5° C.=*** • >1.5-2.5° C.=**** • >2.5° C.=*****

## Cc1cc(N2CCC(C)(c3ccccc3)C2)cnc1C(=O)NCCN1CC2(CCN(C(=O)OC(C)(C)C)CC2)NC1=O (stereo not shown) [Compound 1, 3-(2-(3-methyl-5-(3-methyl-3-phenylpyrrolidin-1-yl)picolinamido)ethyl)-2-oxo-1,3,8-triazaspiro[4.5]decane-8-carboxylate]
  DSF temperature shift: [Tm]compound−[Tm]vehicle: **** (>1.5-2.5° C.=****)
